{"source": "patent US20170247645A1", "about": "“ENCAPSULATED FRAGRANCE MIXTURES” (Symrise AG, priority 2014, published 2017)", "key": {"[1]": {"assay": "log Kow (octanol/water partition coefficient)", "format": "physicochemical", "settings": "1-octanol/water", "source_text": "In a further preferred embodiment, the individual fragrances of the fragrance mixture of the invention have a log Kow value of 1 to 10, preferably of 1.5 to 8, more preferably of 2 to 5.5.\nThe log Kow (octanol/water partition coefficient) is a measure of the lipophilicity of a substance. In terms of calculation, it is the partition coefficient Kow of a substance in a mixture of 1-octanol and water. Kow is greater than one when a substance has better solubility in fat-like solvents such as n-octanol, and less than one when it has better solubility in water. Correspondingly, log Kow is positive for lipophilic substances and negative for hydrophilic substances."}, "[2]": {"assay": "Odor threshold value (OTV) in air", "source_text": "The odor threshold is the threshold at which a fragrance or odorant is olfactorily perceived by an organism. The odor threshold value, OTV for short, is that minimum concentration of a particular gaseous, sensorily active substance in the surrounding medium that this lifeform is just able to perceive through its sense of smell. In the present invention, preference is given to fragrances having a (very) low odor threshold value. The lower this is, the lower the concentration at which the fragrance is then perceived."}}, "note": "At least one compound was matched to its structure with a doubt left."}
{"smiles": "C[C@@H]1CC[C@H]2C[C@@H]1SC2(C)C", "note": "[Example 8, Thiocineol]", "values": [{"measurement": "log Kow", "setting": "[1]", "value": 3.95}, {"measurement": "OTV", "setting": "[2]", "value": "<0.01", "unit": "ppm"}]}
{"smiles": "CCCCCCC#CC(=O)OC", "note": "[Example 4, Methyl octyne carbonate]", "values": [{"measurement": "log Kow", "setting": "[1]", "value": 3.1}, {"measurement": "OTV", "setting": "[2]", "value": 0.2, "unit": "ppm"}]}
